PubChem BioAssay AID504784 – Drosophila RNAi Screening Center | 2011
In all, the deposit lists about 17,000 reagents; shown is an unselected part of those that have a named target and a result. 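Each column is one replicate's B-score; the combined score over replicates was not deposited, so single values may mislead.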 A plus sign joins genes that one reagent is predicted to hit. Further read-outs or replicates are left out here. Reagent sequences are not shown.

Test: 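Genome-wide knock-down for genes giving too much or too little stored lipid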 (primary screen)
Cells: Drosophila Kc167 embryonic cells
Reagent: long dsRNA against Drosophila genes, about 250 ng dsRNA per well
Time to read-out: 4 days
Challenge: cells fed 400 µM oleic acid bound to BSA
Detection: 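Cells imaged and segmented; ratio of lipid droplet area to nuclear area, log-transformed, then normalised as a B-score over the screen; higher means more stored lipid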
Direction: droplet/nuclear area B-score: higher = more stored lipid (overstorage)

droplet/nuclear area B-score, replicate 1, by predicted target and reagent
CG3630 (GeneID 31189): DRSC18499 -0.195
mab-21 (GeneID 44127): DRSC18791 -1.24
CG31126 (GeneID 326121): DRSC14623 2.78
CG6712 (GeneID 34631): DRSC02981 0.976; DRSC21690 0.00746
bou (GeneID 31644): DRSC17924 0.853
CG16825 (GeneID 34739): DRSC02526 -1.31
CG42560 + CG42559: DRSC21873 0.0261
CG32572 (GeneID 32657): DRSC19525 -0.171; DRSC19526 0.836
Arl5 (GeneID 38931): DRSC10785 1.14
Gr22d (retired record) (GeneID 3772682): DRSC21653 -0.41
CCT6 (GeneID 32518): DRSC20095 0.9
Alr (GeneID 32991): DRSC19469 1.63
Tbcc (GeneID 319048): DRSC00223 -0.0927
Drsl3 (GeneID 317955): DRSC22630 0.212
CG9547 (GeneID 33911): DRSC03260 0.981
Ret (GeneID 43875): DRSC03409 1.68; DRSC03410 1.28
Hem (GeneID 40462): DRSC11865 1.13
Ppt2 (GeneID 34564): DRSC02786 1.55
eIF5 (GeneID 32566): DRSC20165 1.09
Ack-like (GeneID 36442): DRSC07500 0.659
Sras (GeneID 44002): DRSC11287 -1.57
hh (GeneID 42737): DRSC16965 0.919
CG18547 (GeneID 41452): DRSC15345 0.88
CG16779 (GeneID 41134): DRSC15153 -0.881
CG7840 (GeneID 34136): DRSC03075 0.317
CG11374 (GeneID 33163): DRSC00306 -1.36
CG5262 (GeneID 40258): DRSC11773 0.0419
ldd (GeneID 318066): DRSC20558 0.403; DRSC22696 0.0111
CG12096 (GeneID 32269): DRSC21692 0.00121
CG15760 (GeneID 32324): DRSC19725 0.902
Lrch (GeneID 35041): DRSC02996 0.0527
Klf15 (GeneID 31410): DRSC17742 -0.162
CG13760 (GeneID 31237): DRSC18617 -1.04
CG31775 + CG42586: DRSC22289 -0.507; DRSC23266 -1.15
tx (retired record) (GeneID 44875): DRSC16931 -3.91

Records listed so far whose target name begins with H or h:
droplet/nuclear area B-score, replicate 1, by predicted target and reagent
Hem (GeneID 40462): DRSC11865 1.13
hh (GeneID 42737): DRSC16965 0.919

Continued:
droplet/nuclear area B-score, replicate 1, by predicted target and reagent
CG6154 (GeneID 43184): DRSC15977 0.119
CG1946 (GeneID 35720): DRSC06804 1.61
Cyp4d21 (GeneID 34036): DRSC03305 -0.204
Hph (GeneID 40633): DRSC12164 -1.24; DRSC12251 -0.732
CG42750 (GeneID 35090): DRSC02458 4.61; DRSC03019 -0.484; DRSC03024 0.586; DRSC21414 0.317; DRSC23218 -1.15
Ptp10D (GeneID 32115): DRSC20272 0.00991
CG7115 (GeneID 34069): DRSC02000 0.368
Rab35 (GeneID 33014): DRSC20691 -0.00892
CG14330 (GeneID 42102): DRSC14809 -0.243
CG13723 (GeneID 39925): DRSC10052 -0.166
Usp16-45 (GeneID 31458): DRSC18352 -0.631
Prosalpha4 (GeneID 32584): DRSC20271 -0.429
mei-P26 (GeneID 45775): DRSC17735 -2.71; DRSC23049 -0.0257
CG4896 (GeneID 33305): DRSC00671 -1.98
Mdh2 (retired record) (GeneID 5656949): DRSC16361 -0.841
mRpS17 (GeneID 37872): DRSC04463 1.49
CG12547 (GeneID 3355145): DRSC07759 -0.689
BEAF-32 (GeneID 36645): DRSC05927 1.18
Cyp313a4 (GeneID 41563): DRSC16627 3.15
gsb-n (GeneID 38004): DRSC04021 0.994; DRSC04693 0.105
Cbl (GeneID 38961): DRSC10764 0.178; DRSC11111 -0.618
nSMase (GeneID 38396): DRSC08237 0.181
SecS (GeneID 40681): DRSC12222 0.11
hfp (GeneID 38173): DRSC08731 0.309; DRSC08732 0.0295; DRSC22408 0.673
CG33230 (GeneID 2768998): DRSC08602 0.359
Tim17a2 (GeneID 40632): DRSC12252 1.14
14-3-3zeta (GeneID 36059): DRSC05028 -1.82
nAChRalpha2 (GeneID 42919): DRSC17009 -0.239
MsrA (GeneID 39675): DRSC11159 0.00785
IscU (GeneID 41059): DRSC16572 11.5
CG34276 (GeneID 41934): DRSC15811 -0.334
CG13912 (GeneID 38120): DRSC08381 -0.564
CG13494 (GeneID 37497): DRSC04139 0.33
CG15390 (GeneID 33422): DRSC00404 0.0298
CG12983 (GeneID 40319): DRSC11692 0.678
CG15014 (GeneID 38533): DRSC08468 1.85
Snap29 (GeneID 37774): DRSC04721 0.114
ph-p (GeneID 31181): DRSC18820 -0.63
CG15258 (GeneID 34904): DRSC02478 -1.34
CG8870 (GeneID 41645): DRSC16452 1.45
CG13403 (GeneID 32366): DRSC19535 -1.12
Vajk1 (GeneID 34809): DRSC01882 0.17
ND-MNLL (GeneID 31697): DRSC18159 0.667
ND-B16.6 (GeneID 31578): DRSC18306 -0.456; DRSC22600 -0.428
iPLA2-VIA (GeneID 39160): DRSC10699 -1.09
dpr6 (GeneID 50296): DRSC09005 -2.03; DRSC10162 -0.648; DRSC10163 2.01
Patronin (GeneID 36978): DRSC06756 -0.344; DRSC06757 -1.22; DRSC06994 -0.194
CG11912 (GeneID 33205): DRSC00332 0.655
CG33012 (GeneID 36342): DRSC06287 -0.183; DRSC06288 0.136
